Counter-ions that a name gives are not always drawn. The list shows a part of the results. Hit calls seldom repeat between salt and free forms of one compound.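 In K562 cells expressing nanoluciferase-fused kinases, luminescence was recorded at 4 h intervals between 2 and 18 h, normalized as percent of control with DMSO at 100% and a positive control at 0%. A significant (2 sigma) signal drop marks a time point as decreased. The authors' rule for a hit is not shown and takes in more than the number of time points.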
Legend:
Assay in all cases: number of time points (of 5) at which kinase-Nluc abundance scored as decreased, DMSO-normalised (count); higher = more persistent destabilization
Conditions in all cases: K562; 2-18 h
[1] = molecular target: EPHA2 (UniProt P29317)
[2] = molecular target: ERBB3 (UniProt P21860)
[3] = molecular target: ERBB4_R711C (clone: ERBB4_mut) (UniProt Q15303)
[4] = molecular target: ERN1 (UniProt O75460)
[5] = molecular target: FGFR1 (UniProt P11362)
[6] = molecular target: FGFR2 (UniProt P21802)
[7] = molecular target: FGFR3 (UniProt P22607)
[8] = molecular target: FGR (UniProt P09769)
[9] = molecular target: FLT3 (UniProt P36888)
[10] = molecular target: FYN (UniProt P06241)
[11] = molecular target: GSK3A (UniProt P49840)
[12] = molecular target: HER2 (UniProt P04626)
[13] = molecular target: INSRR (UniProt P14616)
[14] = molecular target: IRAK3 (UniProt Q9Y616)
[15] = molecular target: JAK1 (UniProt P23458)
[16] = molecular target: LCK (UniProt P06239)
[17] = molecular target: LIMK1 (UniProt P53667)
[18] = molecular target: LIMK2 (UniProt P53671)

By UniProt entry, the sequences of proteins in these tests, tags left out. Where a name states a change or a piece, a line headed by the entry shows the natural chain unless it says otherwise.
UniProt P29317, whole entry: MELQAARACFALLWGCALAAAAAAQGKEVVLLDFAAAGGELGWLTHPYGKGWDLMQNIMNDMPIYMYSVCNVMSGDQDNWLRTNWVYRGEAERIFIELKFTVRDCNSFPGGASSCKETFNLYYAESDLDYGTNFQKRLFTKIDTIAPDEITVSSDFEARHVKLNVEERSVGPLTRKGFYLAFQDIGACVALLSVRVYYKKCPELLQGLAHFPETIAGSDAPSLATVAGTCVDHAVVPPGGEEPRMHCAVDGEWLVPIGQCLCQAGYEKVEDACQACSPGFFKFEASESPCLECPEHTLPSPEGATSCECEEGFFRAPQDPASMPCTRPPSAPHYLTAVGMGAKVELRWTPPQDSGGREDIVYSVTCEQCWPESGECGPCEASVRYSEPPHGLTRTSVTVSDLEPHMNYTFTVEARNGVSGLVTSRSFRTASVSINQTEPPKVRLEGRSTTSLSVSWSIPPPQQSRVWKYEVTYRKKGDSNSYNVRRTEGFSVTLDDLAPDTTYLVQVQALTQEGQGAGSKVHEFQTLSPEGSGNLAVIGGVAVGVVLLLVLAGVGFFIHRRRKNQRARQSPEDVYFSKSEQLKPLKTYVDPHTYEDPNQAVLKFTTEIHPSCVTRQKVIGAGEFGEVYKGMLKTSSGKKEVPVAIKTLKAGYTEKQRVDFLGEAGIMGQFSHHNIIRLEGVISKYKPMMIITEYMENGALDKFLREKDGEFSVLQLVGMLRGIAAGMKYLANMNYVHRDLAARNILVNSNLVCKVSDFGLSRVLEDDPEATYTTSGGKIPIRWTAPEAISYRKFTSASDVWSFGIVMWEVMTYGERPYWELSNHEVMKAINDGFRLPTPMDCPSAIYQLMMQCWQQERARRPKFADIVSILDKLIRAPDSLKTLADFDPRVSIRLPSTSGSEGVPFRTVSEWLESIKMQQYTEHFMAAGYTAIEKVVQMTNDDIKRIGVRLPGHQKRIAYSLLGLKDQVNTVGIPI
UniProt Q15303, whole entry R711C: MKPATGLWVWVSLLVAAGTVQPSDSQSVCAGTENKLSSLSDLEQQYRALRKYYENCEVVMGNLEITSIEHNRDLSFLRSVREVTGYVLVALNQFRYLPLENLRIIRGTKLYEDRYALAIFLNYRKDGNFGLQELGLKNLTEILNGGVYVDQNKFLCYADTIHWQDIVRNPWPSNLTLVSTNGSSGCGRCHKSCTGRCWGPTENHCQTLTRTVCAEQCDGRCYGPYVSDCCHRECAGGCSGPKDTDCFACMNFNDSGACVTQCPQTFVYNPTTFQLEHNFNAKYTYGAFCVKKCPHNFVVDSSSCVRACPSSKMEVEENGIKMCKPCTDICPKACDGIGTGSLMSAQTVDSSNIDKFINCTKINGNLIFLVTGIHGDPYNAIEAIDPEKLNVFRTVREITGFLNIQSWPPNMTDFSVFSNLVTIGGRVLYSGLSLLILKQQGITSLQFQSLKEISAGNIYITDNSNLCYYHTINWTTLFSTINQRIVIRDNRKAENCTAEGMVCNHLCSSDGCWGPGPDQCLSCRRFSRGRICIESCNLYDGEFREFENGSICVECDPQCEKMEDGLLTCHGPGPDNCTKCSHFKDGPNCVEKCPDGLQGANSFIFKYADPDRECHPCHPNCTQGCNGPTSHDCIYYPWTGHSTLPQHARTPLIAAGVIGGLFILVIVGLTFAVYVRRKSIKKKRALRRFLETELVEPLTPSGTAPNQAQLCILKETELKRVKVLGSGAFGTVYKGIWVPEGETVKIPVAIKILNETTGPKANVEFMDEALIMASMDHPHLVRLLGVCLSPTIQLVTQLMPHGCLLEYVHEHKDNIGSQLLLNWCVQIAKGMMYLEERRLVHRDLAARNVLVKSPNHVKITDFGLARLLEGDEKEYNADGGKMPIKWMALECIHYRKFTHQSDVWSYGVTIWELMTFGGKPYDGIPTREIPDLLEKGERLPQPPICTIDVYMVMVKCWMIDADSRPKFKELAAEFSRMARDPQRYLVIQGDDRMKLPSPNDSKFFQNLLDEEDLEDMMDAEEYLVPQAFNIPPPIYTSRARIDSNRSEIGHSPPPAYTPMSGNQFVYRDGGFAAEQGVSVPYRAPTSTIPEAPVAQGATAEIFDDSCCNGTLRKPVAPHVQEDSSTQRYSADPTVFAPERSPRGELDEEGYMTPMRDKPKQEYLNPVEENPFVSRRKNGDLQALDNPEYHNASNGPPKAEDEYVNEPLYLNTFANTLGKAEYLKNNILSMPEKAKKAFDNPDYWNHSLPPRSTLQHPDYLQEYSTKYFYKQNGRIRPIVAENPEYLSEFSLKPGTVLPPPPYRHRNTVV
UniProt O75460: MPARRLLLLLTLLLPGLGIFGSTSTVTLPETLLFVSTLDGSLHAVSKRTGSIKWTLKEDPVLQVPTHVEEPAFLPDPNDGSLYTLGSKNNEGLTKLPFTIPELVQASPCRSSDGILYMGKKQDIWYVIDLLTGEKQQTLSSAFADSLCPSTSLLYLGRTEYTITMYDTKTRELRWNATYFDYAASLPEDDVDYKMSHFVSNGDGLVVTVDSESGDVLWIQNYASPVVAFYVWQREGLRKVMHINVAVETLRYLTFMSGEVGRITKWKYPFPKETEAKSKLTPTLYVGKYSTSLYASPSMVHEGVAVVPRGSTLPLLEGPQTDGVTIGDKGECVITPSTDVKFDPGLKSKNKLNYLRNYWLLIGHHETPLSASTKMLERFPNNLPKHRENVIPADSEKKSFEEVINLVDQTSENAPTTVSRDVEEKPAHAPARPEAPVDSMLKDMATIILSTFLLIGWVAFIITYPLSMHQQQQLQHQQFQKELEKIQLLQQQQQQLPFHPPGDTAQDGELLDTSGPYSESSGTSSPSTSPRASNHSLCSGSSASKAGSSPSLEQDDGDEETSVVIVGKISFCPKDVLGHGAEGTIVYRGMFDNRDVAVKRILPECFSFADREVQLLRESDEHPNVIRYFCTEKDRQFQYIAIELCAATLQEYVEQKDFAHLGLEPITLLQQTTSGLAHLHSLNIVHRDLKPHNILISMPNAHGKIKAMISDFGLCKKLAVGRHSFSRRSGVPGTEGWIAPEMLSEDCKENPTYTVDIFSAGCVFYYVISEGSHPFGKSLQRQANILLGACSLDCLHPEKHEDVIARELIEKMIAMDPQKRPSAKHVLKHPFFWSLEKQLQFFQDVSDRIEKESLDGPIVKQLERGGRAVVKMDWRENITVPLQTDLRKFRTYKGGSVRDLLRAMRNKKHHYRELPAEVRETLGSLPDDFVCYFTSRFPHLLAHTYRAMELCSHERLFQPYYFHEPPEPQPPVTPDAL
UniProt P49840: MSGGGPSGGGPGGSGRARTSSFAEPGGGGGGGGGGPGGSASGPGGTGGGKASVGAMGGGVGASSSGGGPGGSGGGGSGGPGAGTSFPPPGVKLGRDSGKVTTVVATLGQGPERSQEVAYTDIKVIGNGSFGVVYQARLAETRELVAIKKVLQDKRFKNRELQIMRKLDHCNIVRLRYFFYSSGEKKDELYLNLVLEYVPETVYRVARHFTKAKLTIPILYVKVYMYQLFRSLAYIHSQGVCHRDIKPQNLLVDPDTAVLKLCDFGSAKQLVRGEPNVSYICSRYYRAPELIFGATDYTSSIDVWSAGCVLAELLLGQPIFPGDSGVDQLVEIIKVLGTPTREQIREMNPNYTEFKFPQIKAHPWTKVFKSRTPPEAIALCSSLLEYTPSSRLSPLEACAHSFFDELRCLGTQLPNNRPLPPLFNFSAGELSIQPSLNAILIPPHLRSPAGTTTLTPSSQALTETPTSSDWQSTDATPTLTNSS
UniProt P14616: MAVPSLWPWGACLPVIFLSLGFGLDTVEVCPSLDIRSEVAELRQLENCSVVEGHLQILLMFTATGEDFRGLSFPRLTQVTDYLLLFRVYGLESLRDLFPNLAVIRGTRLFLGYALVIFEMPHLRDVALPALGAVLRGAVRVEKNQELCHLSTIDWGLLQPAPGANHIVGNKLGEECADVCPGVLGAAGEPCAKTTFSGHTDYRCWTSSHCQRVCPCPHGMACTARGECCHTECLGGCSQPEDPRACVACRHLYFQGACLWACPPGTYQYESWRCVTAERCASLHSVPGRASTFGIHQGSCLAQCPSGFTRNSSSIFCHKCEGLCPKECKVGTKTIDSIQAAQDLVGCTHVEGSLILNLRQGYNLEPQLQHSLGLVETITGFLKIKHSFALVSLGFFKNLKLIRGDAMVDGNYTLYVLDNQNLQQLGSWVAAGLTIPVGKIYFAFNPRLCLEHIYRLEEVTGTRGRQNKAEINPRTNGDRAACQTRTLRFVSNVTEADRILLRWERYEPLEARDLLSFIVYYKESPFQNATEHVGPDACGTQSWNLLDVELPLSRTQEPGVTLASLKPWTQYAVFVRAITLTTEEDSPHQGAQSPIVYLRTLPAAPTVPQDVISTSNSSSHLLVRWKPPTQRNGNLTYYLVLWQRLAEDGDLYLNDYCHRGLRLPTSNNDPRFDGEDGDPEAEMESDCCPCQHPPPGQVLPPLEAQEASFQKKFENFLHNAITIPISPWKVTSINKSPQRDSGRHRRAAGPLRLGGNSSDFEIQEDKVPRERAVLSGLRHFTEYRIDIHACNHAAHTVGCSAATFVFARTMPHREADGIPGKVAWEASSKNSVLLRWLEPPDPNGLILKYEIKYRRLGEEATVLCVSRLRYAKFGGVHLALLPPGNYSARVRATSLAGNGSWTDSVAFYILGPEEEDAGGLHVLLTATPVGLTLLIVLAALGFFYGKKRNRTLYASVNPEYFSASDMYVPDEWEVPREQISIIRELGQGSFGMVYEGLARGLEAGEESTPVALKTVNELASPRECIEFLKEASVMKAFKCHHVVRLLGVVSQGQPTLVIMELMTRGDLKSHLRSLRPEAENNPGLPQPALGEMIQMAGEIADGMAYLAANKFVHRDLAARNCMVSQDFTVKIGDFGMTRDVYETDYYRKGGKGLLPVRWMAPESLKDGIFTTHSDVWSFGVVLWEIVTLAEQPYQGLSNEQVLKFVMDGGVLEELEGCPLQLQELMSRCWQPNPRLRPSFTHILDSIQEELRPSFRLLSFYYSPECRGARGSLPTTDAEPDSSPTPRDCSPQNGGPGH
UniProt Q9Y616: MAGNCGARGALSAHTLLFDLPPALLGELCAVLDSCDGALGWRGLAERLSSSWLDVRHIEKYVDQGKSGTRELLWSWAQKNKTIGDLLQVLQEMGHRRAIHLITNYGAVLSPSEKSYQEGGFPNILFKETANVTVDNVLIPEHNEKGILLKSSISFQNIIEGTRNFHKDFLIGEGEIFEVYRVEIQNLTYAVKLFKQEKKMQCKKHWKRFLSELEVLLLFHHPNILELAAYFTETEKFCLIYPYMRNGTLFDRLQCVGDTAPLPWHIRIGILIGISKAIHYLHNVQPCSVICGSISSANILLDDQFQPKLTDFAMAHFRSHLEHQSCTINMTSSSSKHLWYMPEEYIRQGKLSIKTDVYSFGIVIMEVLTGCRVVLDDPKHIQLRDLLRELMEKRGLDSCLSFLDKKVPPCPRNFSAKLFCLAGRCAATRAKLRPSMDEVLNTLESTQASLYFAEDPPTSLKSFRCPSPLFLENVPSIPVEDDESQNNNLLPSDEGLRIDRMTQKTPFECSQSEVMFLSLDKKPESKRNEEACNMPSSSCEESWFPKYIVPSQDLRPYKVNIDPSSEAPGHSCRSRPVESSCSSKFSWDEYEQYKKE
UniProt P06239: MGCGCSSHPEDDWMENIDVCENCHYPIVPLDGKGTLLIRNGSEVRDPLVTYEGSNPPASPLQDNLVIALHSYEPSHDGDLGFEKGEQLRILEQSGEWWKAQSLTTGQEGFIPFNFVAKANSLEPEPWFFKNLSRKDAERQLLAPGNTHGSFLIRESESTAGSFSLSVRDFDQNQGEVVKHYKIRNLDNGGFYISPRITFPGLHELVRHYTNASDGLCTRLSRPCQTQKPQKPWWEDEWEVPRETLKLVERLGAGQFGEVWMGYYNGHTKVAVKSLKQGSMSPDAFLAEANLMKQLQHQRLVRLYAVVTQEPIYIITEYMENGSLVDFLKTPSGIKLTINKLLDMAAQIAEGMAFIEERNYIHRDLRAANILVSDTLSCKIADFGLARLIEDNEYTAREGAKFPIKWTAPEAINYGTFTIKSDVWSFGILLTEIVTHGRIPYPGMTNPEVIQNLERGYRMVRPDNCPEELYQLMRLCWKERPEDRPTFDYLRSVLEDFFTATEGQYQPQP

Measured: number of time points

Cc1nc(N)sc1-c1ccnc(Nc2ccc(N3CCOCC3)cc2)n1 (10 µM)
1: [17]
2: [12]
3: [6] | [10]
0: all other assays above

COc1ccc(C=C(C#N)c2cccnc2)cc1OC (10 µM)
0: all assays above

COc1cc2nc(C)nc(N[C@H](C)c3cc(N)cc(C(F)(F)F)c3)c2cc1O[C@H]1CCOC1 (10 µM)
2: [6]
0: all other assays above

CCOc1cc2ncc(C#N)c(Nc3ccc(OCc4ccccn4)c(Cl)c3)c2cc1NC(=O)/C=C/CN(C)C [Neratinib] (10 µM)
5: [12]
0: all other assays above

CC(C)CC(=O)Nc1n[nH]c2c1CN(C(=O)C1CCN(C)CC1)C2(C)C (2.5 µM)
3: [2] | [3] | [6] | [11] | [14]
1: [10]
not listed: [16]
0: all other assays above

Cc1cc(N2CCOCC2)cc2[nH]c(-c3c(NC[C@@H](O)c4cccc(Cl)c4)cc[nH]c3=O)nc12 (10 µM)
1: [18]
3: [2] | [3] | [6]
2: [13] | [14]
4: [10] | [17]
not listed: [16]
0: all other assays above

CNC(=O)c1ccccc1Nc1nc(Nc2ccc(N3CCOCC3)cc2OC)ncc1Cl (2.5 µM)
not listed: [16]
0: all other assays above

CCN(CC)CCCCNc1ncc2cc(-c3cc(OC)cc(OC)c3)c(NC(=O)NC(C)(C)C)nc2n1 (10 µM)
2: [18]
not listed: [5]
0: all other assays above

O=c1cc(N2CCOCC2)oc2c(-c3ccccc3)cccc12 (10 µM)
not listed: [16]
0: all other assays above

N#CC(=Cc1ccc(O)c(O)c1)C(=O)NCc1ccccc1 (mixture of isomers) (10 µM)
0: all assays above

COc1cc(C)c(Sc2cnc(NC(=O)c3ccc(CNC(C)C(C)(C)C)cc3)s2)cc1C(=O)N1CCN(C(C)=O)CC1 (configuration not stated) (2.5 µM)
0: all assays above

CN1CCC(Nc2ncc3ncnc(Nc4ccc(F)c(Cl)c4)c3n2)CC1 [Falnidamol] (10 µM)
0: all assays above

O=c1oc2c(O)c(O)cc3c(=O)oc4c(O)c(O)cc1c4c23 [Ellagic acid] (10 µM)
0: all assays above

COc1cc(OC)cc(-c2cc3cnc(N)nc3nc2NC(=O)NC(C)(C)C)c1 (10 µM)
0: all assays above

O=c1c(-c2ccc(O)cc2)coc2cc(O)cc(O)c12 [Genistein] (10 µM)
0: all assays above

COc1nccc(-c2c(-c3ccc(F)cc3)ncn2C2CCC(O)CC2)n1 (configuration not stated) (10 µM)
not listed: [16]
0: all other assays above

COc1cc(Nc2ncc3c(n2)-c2ccc(Cl)cc2C(c2c(F)cccc2OC)=NC3)ccc1C(=O)O [Alisertib] (2.5 µM)
not listed: [16]
0: all other assays above

Nc1ncnc2c1c(-c1cccc(OCc3ccccc3)c1)cn2C1CC(CN2CCCC2)C1 (configuration not stated) (2.5 µM)
0: all assays above

N#C/C(=C\c1ccc(O)c(O)c1)C(=O)NCc1ccccc1 (10 µM)
0: all assays above

O=C1NCCc2[nH]c(-c3ccnc(-c4cnc5ccccc5c4)c3)cc21 (10 µM)
0: all assays above

N#C/C(=C\c1ccc(O)c(O)c1)C(=O)NCCCc1ccccc1 (10 µM)
0: all assays above

O=S(=O)(NCCNC/C=C/c1ccc(Br)cc1)c1cccc2cnccc12 [H-89 (dihydrochloride)] (10 µM)
0: all assays above

Cc1ccc(NC(=O)Nc2nnc(Sc3ncnc4cc(OCCCN5CCOCC5)ccc34)s2)cc1 (10 µM)
0: all assays above

O=C1Cc2c([nH]c3ccc(Br)cc23)-c2ncccc2N1 [1-Azakenpaullone] (10 µM)
0: all assays above

Cn1c(=O)c(Oc2ccc(F)cc2F)cc2cnc(NC3CCOCC3)nc21 [R1487 (Hydrochloride)] (10 µM)
not listed: [16]
0: all other assays above
